Data: the supplement of paper PMC3334620
Whole data set: some 33,000 sequences, median “E-score (-0.5 to 0.5)” near -0.015, cut for the highest 2% near 0.3. Some of the results follow.

These sequences were tested against T1, Abf1 (UniProt P14164) (assay: PBM E-score (8-mer binding enrichment) (E-score (-0.5 to 0.5)); higher = stronger / more preferred TF binding). Details: protein concentration: 200 nM; construct: GST-full length.
T1 sequence: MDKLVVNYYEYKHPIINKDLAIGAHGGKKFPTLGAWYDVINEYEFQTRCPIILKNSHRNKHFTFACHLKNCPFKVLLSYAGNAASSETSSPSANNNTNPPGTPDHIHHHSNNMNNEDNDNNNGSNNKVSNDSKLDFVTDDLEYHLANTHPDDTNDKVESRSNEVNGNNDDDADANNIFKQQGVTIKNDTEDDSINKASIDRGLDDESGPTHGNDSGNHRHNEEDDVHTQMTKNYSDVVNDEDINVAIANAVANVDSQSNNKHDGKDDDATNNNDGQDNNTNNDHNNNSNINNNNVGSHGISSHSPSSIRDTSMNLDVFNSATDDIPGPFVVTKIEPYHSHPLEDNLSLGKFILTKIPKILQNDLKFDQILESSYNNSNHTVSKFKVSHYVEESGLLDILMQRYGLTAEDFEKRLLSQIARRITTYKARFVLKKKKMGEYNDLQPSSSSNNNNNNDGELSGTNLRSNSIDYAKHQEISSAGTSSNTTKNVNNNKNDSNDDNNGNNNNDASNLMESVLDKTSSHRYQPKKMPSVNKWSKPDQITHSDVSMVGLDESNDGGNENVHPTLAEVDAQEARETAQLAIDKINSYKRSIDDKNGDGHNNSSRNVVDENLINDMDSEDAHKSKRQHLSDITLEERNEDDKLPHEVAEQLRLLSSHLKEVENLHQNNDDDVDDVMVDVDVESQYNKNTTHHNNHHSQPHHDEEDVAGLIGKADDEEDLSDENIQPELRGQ
Protocol: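 Universal 'all 10-mer' protein binding microarrays (Agilent AMADID 015681) probed with GST-tagged S. cerevisiae TFs (full-length or DBD) made by in vitro transcription/translation (PURExpress), about 100-200 nM. Bound TF was detected with fluorescent anti-GST. Each ungapped 8-mer (which stands for itself and its reverse complement) is scored by the PBM enrichment score (E-score), a modified Wilcoxon-Mann-Whitney statistic from -0.5 to +0.5, computed with the Universal PBM Analysis Suite. Scale: above 0.35 generally sequence-specific binding.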

Sequence | PBM E-score
ACCGGAAA | -0.0557
GGATTTAA | 0.0848
TCCCCCAA | -0.312
TGGCGGAA | -0.105
GCCCATAC | -0.0631
AAATCTAT | 0.216
TATAGCAA | -0.0649
CAGAAGTC | -0.156
CTTTAATC | 0.00929
GACTGTCA | 0.0864
CAAGGGAA | -0.0266
CATACGTC | 0.0233
GTCTTAAA | 0.119
ACCGCGCC | -0.0845
AGTGAACC | -0.00877
CACGAAAG | 0.272
CAGCCAGC | -0.303
ATAAGACC | -0.262
GGCGTCCC | -0.255
ATAATCTA | 0.115
CGCCCTAA | -0.126
GACACCAA | -0.0667
CTGTCCCC | -0.245
ACCGGCCT | -0.0588
CGCCGGAA | -0.133

Sequence | PBM E-score
AACCTTGA | -0.0403
AACGAGAG | 0.0599
TAGAGCTA | -0.192
CTTTGTTC | -0.106
GGCGCCTA | 0.0258
AATACGGA | 0.236
GGTCTCAC | 0.111
ATGGTACG | 0.035
CCCACGGA | 0.0844
AGATTAAT | 0.105
AAGGGTGT | -0.191
AATTCGTG | 0.224
ATGCACAC | 0.239
CGAACTTC | 0.0195
CAAAGCGA | 0.0628
CCTTGCTC | -0.316
CATGATAG | 0.0986
CAGCCTGC | -0.204
CTAAGCGC | -0.121
CCGTTCCG | 0.04
CGATGTAC | 0.184
ACAAGCAA | 0.0194
AAGGACGG | -0.183
GAATAATC | 0.193
CTCGGACC | 0.0621

Sequence | PBM E-score
GTCTACAA | 0.0458
AGACCCAG | -0.29
ACCCGCCA | -0.158
ACCCCAGA | -0.248
AGCTGCCG | -0.0478
GTCTGAAA | 0.158
AACCGTAA | -0.0111
CAGATTAA | 0.24
AAAACAAG | 0.0429
CGTGCGAG | 0.137
AAAGTCAG | 0.0858
CGCATTAG | -0.0276
CTTACGAC | 0.103
ACGCGTAC | 0.108
GATACGCC | -0.0576
CAAACTGC | 0.0816
CAGTGTGG | -0.119
AGCACGTA | -0.173
GCCCCTAA | -0.289
CTCTACGC | -0.216
CAGCCTAC | -0.0347
CGCGGGCA | -0.0544
CCTCGCCG | -0.264
AAGCGCTA | 0.0756
AAGCGTAT | -0.0642

Sequence | PBM E-score
AATTAACT | 0.248
ACGGGCGC | 0.186
CAAGTATC | 0.0524
ACATCGCA | 0.204
GCTTCGTA | 0.313
CATCAGGC | -0.0701
ATATGCTG | -0.0426
CAAGATGC | 0.148
GCAATACA | -0.0924
GCCCGTTA | -0.222
CCCCCATA | -0.28
AGTCACTA | 0.315
ACGAGGTG | 0.185
ATAAAATC | 0.182
ATCGTTAC | 0.065
GCCCGAGC | -0.0863
TCACATAA | 0.22
ACAATGTA | -0.00324
GAGAGTAA | -0.00292
ATAGGTTG | -0.183
ACCACGCT | -0.0224
ACAGTTAT | 0.0217
AGCTAGCA | -0.00139
AGGTCGGG | -0.28
GCAGAAGC | -0.0737

Sequence | PBM E-score
GACGCTCA | 0.0668
AGTTTAAA | 0.105
AGATGTTG | -0.03
ATGAGGGA | -0.139
GACCCCAA | -0.136
AGCCAGGG | -0.156
ACTGGATG | -0.0266
AATGCAGT | -0.0778
CCATGTGC | -0.0552
CCTGCGAC | -0.0961
CAGCAGCG | -0.00598
CCACACCG | 0.00453
AGCCTCTC | -0.267
AGATAAAC | 0.155
CAGTCCAG | -0.235
CGTAAGCA | -0.218
CTTGGGGC | -0.247
CGGGCCAG | -0.212
GGCCCAAA | -0.262
AAGACATG | -0.0258
CAGCGCAA | -0.105
ATCATGAA | 0.121
GAATGTGC | 0.15
ACTGGACC | -0.149
ATTGAGCC | 0.0551

A second format for some results above:
CTTGGGGC
  PBM E-score = -0.247
GGCCCAAA
  PBM E-score = -0.262
ATCATGAA
  PBM E-score = 0.121

More records.

Sequence | PBM E-score
CAGTCTCC | -0.123
CATAAAGG | -0.12
CAGTTTGC | -0.0252
CCTCCTAA | -0.109
ATAAAAAC | 0.277
CACCAGGC | -0.066
GATAGACC | 0.0194
CACCTAAG | 0.0751
TAAGTAGA | 0.133
TATAAGGA | 0.0273
CACCGATA | 0.0799
ATCTCAGA | 0.0428
CCCTTCAG | -0.197
AGTTATGG | -0.0478
GATGTACC | 0.136
GAAGCCCA | -0.161
AACCGGGC | -0.103
GACTACGA | 0.128
ATGATGCC | 0.0807
ATTCACGC | 0.00975
TATGGTCA | 0.216
CCGGCAGG | -0.234
CCTTTGAG | -0.0864
CTCATATC | -0.0957
AGCTGTAA | -0.105

Sequence | PBM E-score
CCGGTGCA | -0.121
CGTCGCAA | 0.203
CGTCGGCA | 0.0993
CCCTGCGA | -0.0803
CCTACCAA | 0.162
AGGGTGCA | -0.172
CGGCGTGA | -0.168
CTTTCTGA | 0.08
AACTTGAA | -0.0376
AATCCGCT | -0.131
GCACAGGA | -0.126
GTCAAAGA | 0.0864
AAATCACC | 0.336
GGATATAC | -0.053
CATTCCGC | -0.213
ATAGACAG | -0.0601
TACGTAGA | 0.138
ACAGCTCA | -0.0214
AAGTATTC | 0.012
AGAGTGCT | -0.0358
CTCGGTTC | -0.0328
CGGCGTTA | -0.0175
ATCATAAT | 0.217
AACGCCTT | -0.142
CAGCTCAA | 0.00284

Sequence | PBM E-score
ATTTGGCC | -0.148
ACTGCCCA | -0.0787
CGTGAAAG | 0.29
ATTATCCC | 0.17
ATGCGCAA | -0.131
ACCAGCTA | 0.131
TGCAAGCA | -0.0425
CGTCATTC | 0.288
AGATGATC | 0.176
GTCTGCGA | -0.0886
AGTCGTCG | 0.00151
CCATAGGG | -0.1
CTAAGTGC | -0.0207
CATGCCTC | 0.0707
CATGCTCA | -0.0836
AGCCTTCG | -0.214
AGAGGGTG | -0.0758
GCCGCGTA | -0.0622
AGTAGGCC | -0.134
AACTGGTC | -0.0107
CTAGCGGC | -0.271
GTAGCTAA | 0.0111
CAGGCAGA | -0.144
GAAGCGAC | 0.185
AAGCCTAT | -0.125

Taken from above:
Value for ACTGCCCA under PBM E-score: -0.0787
Value for AGTCGTCG under PBM E-score: 0.00151
Value for CTAAGTGC under PBM E-score: -0.0207
Value for GTCTGCGA under PBM E-score: -0.0886

The list continues.

Sequence | PBM E-score
ATCGTGGA | 0.165
CGAGGATA | 0.0582
AAAGGCGT | -0.159
GCCTCAAA | -0.0894
AACCAAGG | -0.11
CAACCACG | 0.0943
GGTTATAA | -0.0328
GCTAAACA | 0.0602
CTATGCCA | -0.205
CTGCAGGC | -0.251
CGAGCACG | 0.0518
AGCGAGAT | 0.0588
CTTAAGGC | -0.19
ATCGCTTC | 0.19
GCAAACCA | -0.113
GCCGAGGC | -0.0428
ATTTGGGC | -0.0914
CGTAGTTC | -0.0223
GGTTAAAC | 0.0906
